This experiment deals with HA-Raf-1 (UniProt P04049). Kind of experiment: co-immunoprecipitation from co-transfected HEK-293T cells, anti-Raf-1 IP, anti-FLAG Western blot. For orientation: A western blot detects proteins with antibodies after separation by electrophoresis.

Results are given in words; binding and its absence hold for the method and conditions named. In cells and extracts the contact can be indirect. Some entries that bind do so weakly or less than the wild type. Sequences can lack the tags named with a protein.

One molecule from patent US20030059771A1, “Compositions and methods related to the Rig tumor suppressor gene and protein” (THE UNITED STATES OF AMERICA, Department of Health and …, priority 2001, published 2003) can be followed below.

B1: FLAG-Rig (protein, not shown: small tags and cut ends)
chain: MPEQSNDYRVVVFGAGGVGKSSLVLRFVKGTFRDTYIPTIEDTYRQVISCDKSVCTLQITDTTGSHQFPAMQRLSISKGHAFILVFSVTSKQSLEELGPIYKLIVQIKGSVEDIPVMLVGNKCDETQREVDTREAQAVAQEWKCAFMETSAKMNYNVKELFQELLTLETRRNMSLNIDGKRSGKQKRTDRVKGKCTLM
Take B1: the binding result is given as “binds”.
